PubChem BioAssay AID1224829 – NIAID – 2016

- Test: 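Follow-up of TLR4-NF-kappaB regulators using six separate siRNAs for each gene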 (follow-up of hits)
- Cell system: mouse RAW264.7 G9 macrophage reporter cells
- Knock-down reagent: single siRNA against mouse genes, 100 nM
- Timing: 2 days of siRNA knock-down, then 40 min of LPS before fixing
- Conditions: LPS (Salmonella minnesota R595) at 10 ng/ml
- Read-out: 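High-content images after 40 min LPS exposure; GFP-p65 nucleus to surrounding ring signal ratio, normalised to plate median and non-targeting control wells, expressed as z-score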
- Direction: p65 translocation z-score and gene median z-score, per vendor: higher = more nuclear NF-kappaB p65 after LPS
- Hit rule: 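Active means the replicate-mean z-score lies beyond plus or minus 2, in either direction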
- Meaning of the calls: active = changed p65 translocation (either direction); inactive = no clear change
The deposit covers about 3,800 reagents; this is a random part of them. 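Calls cover raised and lowered translocation; gene median uses one vendor's three siRNAs; qiagen siRNAs acted more weakly than ambion siRNAs.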 The numbers tell different reagents against one gene apart.

With Or5d43 (olfactory receptor family 5 subfamily D member 43) #1, siRNA vendor or control pool ambion single siRNA, the entry reads p65 translocation z-score, replicate mean -3.74; p65 translocation z-score, replicate 1 = -4.94; p65 translocation z-score, replicate 2 = -2.53; gene median z-score, per vendor -3.7; active. For Or5d43 (olfactory receptor family 5 subfamily D member 43) #2, siRNA vendor or control pool ambion single siRNA, the values are p65 translocation z-score, replicate mean -5.38; p65 translocation z-score, replicate 1 = -6.53; p65 translocation z-score, replicate 2 = -4.23; gene median z-score, per vendor -3.7; active. For Or5d43 (olfactory receptor family 5 subfamily D member 43) #3, siRNA vendor or control pool ambion single siRNA, the entry reads p65 translocation z-score, replicate mean -2.29; p65 translocation z-score, replicate 1 = -3.16; p65 translocation z-score, replicate 2 = -1.43; gene median z-score, per vendor -3.7; active. With Or5d43 (olfactory receptor family 5 subfamily D member 43) #4, siRNA vendor or control pool qiagen single siRNA the deposit lists p65 translocation z-score, replicate mean 1.53; p65 translocation z-score, replicate 1 = 2.14; p65 translocation z-score, replicate 2 = 0.923; gene median z-score, per vendor 1.74; inactive. For Or5d43 (olfactory receptor family 5 subfamily D member 43) #5, siRNA vendor or control pool qiagen single siRNA, the values are p65 translocation z-score, replicate mean 2.81; p65 translocation z-score, replicate 1 = 2.26; p65 translocation z-score, replicate 2 = 3.35; gene median z-score, per vendor 1.74; active. For Or5d43 (olfactory receptor family 5 subfamily D member 43) #6, siRNA vendor or control pool qiagen single siRNA, the values are p65 translocation z-score, replicate mean 0.923; p65 translocation z-score, replicate 1 = 0.502; p65 translocation z-score, replicate 2 = 1.34; gene median z-score, per vendor 1.74; inactive.

Bpifa1 (BPI fold containing family A, member 1) #1, siRNA vendor or control pool ambion single siRNA gave p65 translocation z-score, replicate mean -0.385; p65 translocation z-score, replicate 1 = 0.726; p65 translocation z-score, replicate 2 = -1.5; gene median z-score, per vendor -1.62; inactive. With Bpifa1 (BPI fold containing family A, member 1) #2, siRNA vendor or control pool ambion single siRNA, the values are p65 translocation z-score, replicate mean -4.39; p65 translocation z-score, replicate 1 = -4.12; p65 translocation z-score, replicate 2 = -4.65; gene median z-score, per vendor -1.62; active. With Bpifa1 (BPI fold containing family A, member 1) #3, siRNA vendor or control pool ambion single siRNA, the values are p65 translocation z-score, replicate mean -0.921; p65 translocation z-score, replicate 1 = -0.103; p65 translocation z-score, replicate 2 = -1.74; gene median z-score, per vendor -1.62; inactive. With Bpifa1 (BPI fold containing family A, member 1) #4, siRNA vendor or control pool qiagen single siRNA, the entry reads p65 translocation z-score, replicate mean 1.18; p65 translocation z-score, replicate 1 = -0.85; p65 translocation z-score, replicate 2 = 3.2; gene median z-score, per vendor 0.694; inactive. For Bpifa1 (BPI fold containing family A, member 1) #5, siRNA vendor or control pool qiagen single siRNA the deposit lists p65 translocation z-score, replicate mean 0.694; p65 translocation z-score, replicate 1 = 0.0597; p65 translocation z-score, replicate 2 = 1.33; gene median z-score, per vendor 0.694; inactive. Bpifa1 (BPI fold containing family A, member 1) #6, siRNA vendor or control pool qiagen single siRNA gave p65 translocation z-score, replicate mean 0.246; p65 translocation z-score, replicate 1 = -1.33; p65 translocation z-score, replicate 2 = 1.82; gene median z-score, per vendor 0.694; inactive.

For Chd4 (chromodomain helicase DNA binding protein 4) #1, siRNA vendor or control pool ambion single siRNA, the values are p65 translocation z-score, replicate mean 0.549; p65 translocation z-score, replicate 1 = 2; p65 translocation z-score, replicate 2 = -0.902; gene median z-score, per vendor -1.65; inactive. With Chd4 (chromodomain helicase DNA binding protein 4) #2, siRNA vendor or control pool ambion single siRNA, the values are p65 translocation z-score, replicate mean -2.87; p65 translocation z-score, replicate 1 = -3.35; p65 translocation z-score, replicate 2 = -2.4; gene median z-score, per vendor -1.65; active. Chd4 (chromodomain helicase DNA binding protein 4) #3, siRNA vendor or control pool ambion single siRNA scored p65 translocation z-score, replicate mean -1.39; p65 translocation z-score, replicate 1 = -0.301; p65 translocation z-score, replicate 2 = -2.48; gene median z-score, per vendor -1.65; inactive. For Chd4 (chromodomain helicase DNA binding protein 4) #4, siRNA vendor or control pool qiagen single siRNA, the values are p65 translocation z-score, replicate mean -1.23; p65 translocation z-score, replicate 1 = -1.67; p65 translocation z-score, replicate 2 = -0.788; gene median z-score, per vendor -1.92; inactive. Chd4 (chromodomain helicase DNA binding protein 4) #5, siRNA vendor or control pool qiagen single siRNA gave p65 translocation z-score, replicate mean -2.34; p65 translocation z-score, replicate 1 = -2.45; p65 translocation z-score, replicate 2 = -2.23; gene median z-score, per vendor -1.92; active. For Chd4 (chromodomain helicase DNA binding protein 4) #6, siRNA vendor or control pool qiagen single siRNA, the entry reads p65 translocation z-score, replicate mean -1.61; p65 translocation z-score, replicate 1 = -2.17; p65 translocation z-score, replicate 2 = -1.06; gene median z-score, per vendor -1.92; inactive.

Bpifb5 (BPI fold containing family B, member 5) #1, siRNA vendor or control pool ambion single siRNA showed p65 translocation z-score, replicate mean -2.91; p65 translocation z-score, replicate 1 = -1.96; p65 translocation z-score, replicate 2 = -3.86; gene median z-score, per vendor -2.91; active. Bpifb5 (BPI fold containing family B, member 5) #2, siRNA vendor or control pool ambion single siRNA showed p65 translocation z-score, replicate mean -2.91; p65 translocation z-score, replicate 1 = -3.24; p65 translocation z-score, replicate 2 = -2.58; gene median z-score, per vendor -2.91; active. For Bpifb5 (BPI fold containing family B, member 5) #3, siRNA vendor or control pool ambion single siRNA, the values are gene median z-score, per vendor -2.91; inactive. Bpifb5 (BPI fold containing family B, member 5) #4, siRNA vendor or control pool qiagen single siRNA scored p65 translocation z-score, replicate mean 0.763; p65 translocation z-score, replicate 1 = 0.438; p65 translocation z-score, replicate 2 = 1.09; gene median z-score, per vendor 1.3; inactive. For Bpifb5 (BPI fold containing family B, member 5) #5, siRNA vendor or control pool qiagen single siRNA, the entry reads p65 translocation z-score, replicate mean 1.52; p65 translocation z-score, replicate 1 = 1.52; p65 translocation z-score, replicate 2 = 1.52; gene median z-score, per vendor 1.3; inactive. With Bpifb5 (BPI fold containing family B, member 5) #6, siRNA vendor or control pool qiagen single siRNA the deposit lists gene median z-score, per vendor 1.3; inactive.
